This note sets out measurements from US12415832B2 (University of South Florida, priority 2019, dated 2025).

A short description of the data set: general procedure: Fmoc solid-phase peptide synthesis; Rink Amide-MBHA resin (0.646 mmol/g); HOBt/DIC. Conditions: whole synthesis, analytical HPLC, scale of the general procedure 100 mg resin.

In the case of Ac-SQEQLEHRERSLQTLRDIQRMLF-NH2, the “final HPLC purity” value came to 100.0%. For Flu-Beta-Ala-SQEQLEHRERSLQTLRDIQRMLF, the “final HPLC purity” value is 100.0%.
